Patent US20050239064A1 (published 2005)
Results are given in words; binding and its absence hold for the method and conditions named. Some binding calls cover weakened binding; strength is not graded here. Sequences can lack the tags named with a protein.

Protein sequences, listed by entry. Tags and fused reporters are not part of them. Lines headed by an entry give the natural chain unless they say otherwise; changes in a name come on top.
UniProt P21519: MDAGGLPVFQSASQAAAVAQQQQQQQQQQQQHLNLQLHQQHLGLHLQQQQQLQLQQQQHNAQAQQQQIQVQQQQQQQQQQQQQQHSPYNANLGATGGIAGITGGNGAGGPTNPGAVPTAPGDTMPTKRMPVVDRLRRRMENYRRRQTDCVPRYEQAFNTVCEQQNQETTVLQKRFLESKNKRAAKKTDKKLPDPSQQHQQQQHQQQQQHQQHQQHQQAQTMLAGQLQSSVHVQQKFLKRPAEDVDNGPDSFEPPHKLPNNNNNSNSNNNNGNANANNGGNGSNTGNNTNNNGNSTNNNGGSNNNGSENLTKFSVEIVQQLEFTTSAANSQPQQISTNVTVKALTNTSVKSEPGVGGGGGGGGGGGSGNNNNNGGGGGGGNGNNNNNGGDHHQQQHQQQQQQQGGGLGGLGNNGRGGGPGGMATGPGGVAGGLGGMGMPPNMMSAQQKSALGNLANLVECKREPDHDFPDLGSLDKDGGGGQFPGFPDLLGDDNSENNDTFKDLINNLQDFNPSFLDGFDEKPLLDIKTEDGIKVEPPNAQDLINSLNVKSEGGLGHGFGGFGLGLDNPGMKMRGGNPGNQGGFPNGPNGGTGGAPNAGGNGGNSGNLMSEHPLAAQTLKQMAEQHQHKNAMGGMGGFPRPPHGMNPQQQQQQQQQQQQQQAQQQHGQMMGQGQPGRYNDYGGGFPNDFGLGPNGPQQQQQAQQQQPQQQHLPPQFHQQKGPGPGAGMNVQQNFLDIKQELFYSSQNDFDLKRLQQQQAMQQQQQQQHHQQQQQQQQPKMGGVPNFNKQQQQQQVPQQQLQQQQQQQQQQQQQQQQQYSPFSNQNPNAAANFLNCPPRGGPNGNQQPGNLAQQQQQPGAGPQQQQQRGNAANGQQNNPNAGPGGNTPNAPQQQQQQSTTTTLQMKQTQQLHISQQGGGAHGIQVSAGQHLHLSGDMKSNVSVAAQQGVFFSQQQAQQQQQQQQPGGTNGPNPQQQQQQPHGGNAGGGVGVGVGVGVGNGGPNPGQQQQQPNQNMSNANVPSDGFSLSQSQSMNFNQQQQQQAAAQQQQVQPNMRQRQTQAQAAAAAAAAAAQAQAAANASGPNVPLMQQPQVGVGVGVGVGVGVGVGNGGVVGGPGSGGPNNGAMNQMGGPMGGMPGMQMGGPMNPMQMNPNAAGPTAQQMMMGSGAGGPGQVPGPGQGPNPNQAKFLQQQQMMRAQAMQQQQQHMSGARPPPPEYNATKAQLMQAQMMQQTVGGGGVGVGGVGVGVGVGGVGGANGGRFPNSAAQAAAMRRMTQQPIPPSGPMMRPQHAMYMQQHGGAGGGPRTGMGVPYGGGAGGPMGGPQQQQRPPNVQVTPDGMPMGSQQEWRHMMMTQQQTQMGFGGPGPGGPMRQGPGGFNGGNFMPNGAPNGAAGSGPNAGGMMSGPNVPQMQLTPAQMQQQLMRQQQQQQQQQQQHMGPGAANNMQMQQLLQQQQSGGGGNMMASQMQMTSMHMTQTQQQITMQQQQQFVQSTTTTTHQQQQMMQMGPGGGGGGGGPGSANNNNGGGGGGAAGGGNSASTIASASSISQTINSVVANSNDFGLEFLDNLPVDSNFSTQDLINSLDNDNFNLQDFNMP

Tests used:
[1] = target: T1, Mip1 tagged at its amino terminus with the HA epitope, expressed from pcDNA3 in 293T cells (Drosophila); assay: co-expression in 293T cells, indirect immunofluorescence
T1 sequence: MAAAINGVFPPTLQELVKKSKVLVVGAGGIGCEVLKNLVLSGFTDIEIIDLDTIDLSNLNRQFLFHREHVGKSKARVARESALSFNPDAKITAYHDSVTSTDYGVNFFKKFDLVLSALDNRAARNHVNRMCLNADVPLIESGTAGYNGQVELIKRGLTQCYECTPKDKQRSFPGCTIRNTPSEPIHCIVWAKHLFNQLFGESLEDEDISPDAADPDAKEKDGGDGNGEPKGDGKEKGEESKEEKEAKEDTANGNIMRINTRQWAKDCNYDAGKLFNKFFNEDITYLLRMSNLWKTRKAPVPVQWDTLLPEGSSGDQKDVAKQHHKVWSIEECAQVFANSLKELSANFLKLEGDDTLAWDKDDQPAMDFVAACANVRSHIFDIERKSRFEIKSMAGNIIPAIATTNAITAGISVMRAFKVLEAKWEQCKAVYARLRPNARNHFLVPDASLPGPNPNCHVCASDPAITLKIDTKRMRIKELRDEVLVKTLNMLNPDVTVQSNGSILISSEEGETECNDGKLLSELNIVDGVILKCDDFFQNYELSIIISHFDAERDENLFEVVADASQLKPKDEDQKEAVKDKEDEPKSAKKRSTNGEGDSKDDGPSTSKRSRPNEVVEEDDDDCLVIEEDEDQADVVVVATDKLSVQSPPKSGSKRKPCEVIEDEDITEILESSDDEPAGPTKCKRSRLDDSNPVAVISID

[2] = target: T2, Mip30 two-hybrid clone, amino-terminally truncated protein of 315 amino acids, fused to the E. coli B42 transactivation domain encoded by pJG4-5 (Drosophila); assay: yeast two-hybrid, lacZ reporter
T2 sequence: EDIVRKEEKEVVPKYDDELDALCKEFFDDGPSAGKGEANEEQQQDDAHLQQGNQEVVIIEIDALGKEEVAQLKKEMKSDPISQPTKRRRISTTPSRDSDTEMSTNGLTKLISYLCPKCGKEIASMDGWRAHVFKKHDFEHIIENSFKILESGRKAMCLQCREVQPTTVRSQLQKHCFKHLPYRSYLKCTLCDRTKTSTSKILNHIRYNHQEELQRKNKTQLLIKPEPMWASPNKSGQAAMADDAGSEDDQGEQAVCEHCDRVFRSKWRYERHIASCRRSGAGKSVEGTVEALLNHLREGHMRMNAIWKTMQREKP

[3] = target: T2, Mip30 two-hybrid clone, amino-terminally truncated protein of 315 amino acids, fused to the E. coli B42 transactivation domain encoded by pJG4-5 (Drosophila); assay: yeast two-hybrid in strain EGY48, β-galactosidase units

| binding [1] | binding [2] | binding [3] | Substance |
| --- | --- | --- | --- |
| binds | – | – | Drosophila Mastermind (Mam) tagged at its amino terminus with the Flag epitope, expressed from pcDNA3 in 293T cells (from UniProt P21519 1-1594) |
| – | binds | binds | truncated Mam protein (carboxy-terminal 32 amino acids of full-length Drosophila Mastermind deleted) fused to the Gal4 DNA-binding domain encoded by pEG202 (from UniProt P21519 1-1562) |
